Laboratory results published in the supplement of paper PMC10849652.
Some of the results follow.

The chains behind the UniProt entries cited, without tags or fusion partners. Where a name states a change or a piece, a line headed by the entry shows the natural chain unless it says otherwise.
UniProt Q6P9B6: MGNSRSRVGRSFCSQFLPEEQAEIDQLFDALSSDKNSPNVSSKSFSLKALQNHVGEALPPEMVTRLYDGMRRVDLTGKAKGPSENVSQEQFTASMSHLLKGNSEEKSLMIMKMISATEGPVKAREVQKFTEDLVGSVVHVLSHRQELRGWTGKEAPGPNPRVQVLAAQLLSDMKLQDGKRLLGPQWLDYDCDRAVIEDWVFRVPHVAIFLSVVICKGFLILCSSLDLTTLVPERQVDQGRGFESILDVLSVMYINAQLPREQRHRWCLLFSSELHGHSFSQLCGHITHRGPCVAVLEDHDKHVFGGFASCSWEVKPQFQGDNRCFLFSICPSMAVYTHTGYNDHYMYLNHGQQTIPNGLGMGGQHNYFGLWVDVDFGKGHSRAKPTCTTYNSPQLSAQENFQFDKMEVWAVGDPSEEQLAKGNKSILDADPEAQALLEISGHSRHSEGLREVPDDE
UniProt Q9NU22: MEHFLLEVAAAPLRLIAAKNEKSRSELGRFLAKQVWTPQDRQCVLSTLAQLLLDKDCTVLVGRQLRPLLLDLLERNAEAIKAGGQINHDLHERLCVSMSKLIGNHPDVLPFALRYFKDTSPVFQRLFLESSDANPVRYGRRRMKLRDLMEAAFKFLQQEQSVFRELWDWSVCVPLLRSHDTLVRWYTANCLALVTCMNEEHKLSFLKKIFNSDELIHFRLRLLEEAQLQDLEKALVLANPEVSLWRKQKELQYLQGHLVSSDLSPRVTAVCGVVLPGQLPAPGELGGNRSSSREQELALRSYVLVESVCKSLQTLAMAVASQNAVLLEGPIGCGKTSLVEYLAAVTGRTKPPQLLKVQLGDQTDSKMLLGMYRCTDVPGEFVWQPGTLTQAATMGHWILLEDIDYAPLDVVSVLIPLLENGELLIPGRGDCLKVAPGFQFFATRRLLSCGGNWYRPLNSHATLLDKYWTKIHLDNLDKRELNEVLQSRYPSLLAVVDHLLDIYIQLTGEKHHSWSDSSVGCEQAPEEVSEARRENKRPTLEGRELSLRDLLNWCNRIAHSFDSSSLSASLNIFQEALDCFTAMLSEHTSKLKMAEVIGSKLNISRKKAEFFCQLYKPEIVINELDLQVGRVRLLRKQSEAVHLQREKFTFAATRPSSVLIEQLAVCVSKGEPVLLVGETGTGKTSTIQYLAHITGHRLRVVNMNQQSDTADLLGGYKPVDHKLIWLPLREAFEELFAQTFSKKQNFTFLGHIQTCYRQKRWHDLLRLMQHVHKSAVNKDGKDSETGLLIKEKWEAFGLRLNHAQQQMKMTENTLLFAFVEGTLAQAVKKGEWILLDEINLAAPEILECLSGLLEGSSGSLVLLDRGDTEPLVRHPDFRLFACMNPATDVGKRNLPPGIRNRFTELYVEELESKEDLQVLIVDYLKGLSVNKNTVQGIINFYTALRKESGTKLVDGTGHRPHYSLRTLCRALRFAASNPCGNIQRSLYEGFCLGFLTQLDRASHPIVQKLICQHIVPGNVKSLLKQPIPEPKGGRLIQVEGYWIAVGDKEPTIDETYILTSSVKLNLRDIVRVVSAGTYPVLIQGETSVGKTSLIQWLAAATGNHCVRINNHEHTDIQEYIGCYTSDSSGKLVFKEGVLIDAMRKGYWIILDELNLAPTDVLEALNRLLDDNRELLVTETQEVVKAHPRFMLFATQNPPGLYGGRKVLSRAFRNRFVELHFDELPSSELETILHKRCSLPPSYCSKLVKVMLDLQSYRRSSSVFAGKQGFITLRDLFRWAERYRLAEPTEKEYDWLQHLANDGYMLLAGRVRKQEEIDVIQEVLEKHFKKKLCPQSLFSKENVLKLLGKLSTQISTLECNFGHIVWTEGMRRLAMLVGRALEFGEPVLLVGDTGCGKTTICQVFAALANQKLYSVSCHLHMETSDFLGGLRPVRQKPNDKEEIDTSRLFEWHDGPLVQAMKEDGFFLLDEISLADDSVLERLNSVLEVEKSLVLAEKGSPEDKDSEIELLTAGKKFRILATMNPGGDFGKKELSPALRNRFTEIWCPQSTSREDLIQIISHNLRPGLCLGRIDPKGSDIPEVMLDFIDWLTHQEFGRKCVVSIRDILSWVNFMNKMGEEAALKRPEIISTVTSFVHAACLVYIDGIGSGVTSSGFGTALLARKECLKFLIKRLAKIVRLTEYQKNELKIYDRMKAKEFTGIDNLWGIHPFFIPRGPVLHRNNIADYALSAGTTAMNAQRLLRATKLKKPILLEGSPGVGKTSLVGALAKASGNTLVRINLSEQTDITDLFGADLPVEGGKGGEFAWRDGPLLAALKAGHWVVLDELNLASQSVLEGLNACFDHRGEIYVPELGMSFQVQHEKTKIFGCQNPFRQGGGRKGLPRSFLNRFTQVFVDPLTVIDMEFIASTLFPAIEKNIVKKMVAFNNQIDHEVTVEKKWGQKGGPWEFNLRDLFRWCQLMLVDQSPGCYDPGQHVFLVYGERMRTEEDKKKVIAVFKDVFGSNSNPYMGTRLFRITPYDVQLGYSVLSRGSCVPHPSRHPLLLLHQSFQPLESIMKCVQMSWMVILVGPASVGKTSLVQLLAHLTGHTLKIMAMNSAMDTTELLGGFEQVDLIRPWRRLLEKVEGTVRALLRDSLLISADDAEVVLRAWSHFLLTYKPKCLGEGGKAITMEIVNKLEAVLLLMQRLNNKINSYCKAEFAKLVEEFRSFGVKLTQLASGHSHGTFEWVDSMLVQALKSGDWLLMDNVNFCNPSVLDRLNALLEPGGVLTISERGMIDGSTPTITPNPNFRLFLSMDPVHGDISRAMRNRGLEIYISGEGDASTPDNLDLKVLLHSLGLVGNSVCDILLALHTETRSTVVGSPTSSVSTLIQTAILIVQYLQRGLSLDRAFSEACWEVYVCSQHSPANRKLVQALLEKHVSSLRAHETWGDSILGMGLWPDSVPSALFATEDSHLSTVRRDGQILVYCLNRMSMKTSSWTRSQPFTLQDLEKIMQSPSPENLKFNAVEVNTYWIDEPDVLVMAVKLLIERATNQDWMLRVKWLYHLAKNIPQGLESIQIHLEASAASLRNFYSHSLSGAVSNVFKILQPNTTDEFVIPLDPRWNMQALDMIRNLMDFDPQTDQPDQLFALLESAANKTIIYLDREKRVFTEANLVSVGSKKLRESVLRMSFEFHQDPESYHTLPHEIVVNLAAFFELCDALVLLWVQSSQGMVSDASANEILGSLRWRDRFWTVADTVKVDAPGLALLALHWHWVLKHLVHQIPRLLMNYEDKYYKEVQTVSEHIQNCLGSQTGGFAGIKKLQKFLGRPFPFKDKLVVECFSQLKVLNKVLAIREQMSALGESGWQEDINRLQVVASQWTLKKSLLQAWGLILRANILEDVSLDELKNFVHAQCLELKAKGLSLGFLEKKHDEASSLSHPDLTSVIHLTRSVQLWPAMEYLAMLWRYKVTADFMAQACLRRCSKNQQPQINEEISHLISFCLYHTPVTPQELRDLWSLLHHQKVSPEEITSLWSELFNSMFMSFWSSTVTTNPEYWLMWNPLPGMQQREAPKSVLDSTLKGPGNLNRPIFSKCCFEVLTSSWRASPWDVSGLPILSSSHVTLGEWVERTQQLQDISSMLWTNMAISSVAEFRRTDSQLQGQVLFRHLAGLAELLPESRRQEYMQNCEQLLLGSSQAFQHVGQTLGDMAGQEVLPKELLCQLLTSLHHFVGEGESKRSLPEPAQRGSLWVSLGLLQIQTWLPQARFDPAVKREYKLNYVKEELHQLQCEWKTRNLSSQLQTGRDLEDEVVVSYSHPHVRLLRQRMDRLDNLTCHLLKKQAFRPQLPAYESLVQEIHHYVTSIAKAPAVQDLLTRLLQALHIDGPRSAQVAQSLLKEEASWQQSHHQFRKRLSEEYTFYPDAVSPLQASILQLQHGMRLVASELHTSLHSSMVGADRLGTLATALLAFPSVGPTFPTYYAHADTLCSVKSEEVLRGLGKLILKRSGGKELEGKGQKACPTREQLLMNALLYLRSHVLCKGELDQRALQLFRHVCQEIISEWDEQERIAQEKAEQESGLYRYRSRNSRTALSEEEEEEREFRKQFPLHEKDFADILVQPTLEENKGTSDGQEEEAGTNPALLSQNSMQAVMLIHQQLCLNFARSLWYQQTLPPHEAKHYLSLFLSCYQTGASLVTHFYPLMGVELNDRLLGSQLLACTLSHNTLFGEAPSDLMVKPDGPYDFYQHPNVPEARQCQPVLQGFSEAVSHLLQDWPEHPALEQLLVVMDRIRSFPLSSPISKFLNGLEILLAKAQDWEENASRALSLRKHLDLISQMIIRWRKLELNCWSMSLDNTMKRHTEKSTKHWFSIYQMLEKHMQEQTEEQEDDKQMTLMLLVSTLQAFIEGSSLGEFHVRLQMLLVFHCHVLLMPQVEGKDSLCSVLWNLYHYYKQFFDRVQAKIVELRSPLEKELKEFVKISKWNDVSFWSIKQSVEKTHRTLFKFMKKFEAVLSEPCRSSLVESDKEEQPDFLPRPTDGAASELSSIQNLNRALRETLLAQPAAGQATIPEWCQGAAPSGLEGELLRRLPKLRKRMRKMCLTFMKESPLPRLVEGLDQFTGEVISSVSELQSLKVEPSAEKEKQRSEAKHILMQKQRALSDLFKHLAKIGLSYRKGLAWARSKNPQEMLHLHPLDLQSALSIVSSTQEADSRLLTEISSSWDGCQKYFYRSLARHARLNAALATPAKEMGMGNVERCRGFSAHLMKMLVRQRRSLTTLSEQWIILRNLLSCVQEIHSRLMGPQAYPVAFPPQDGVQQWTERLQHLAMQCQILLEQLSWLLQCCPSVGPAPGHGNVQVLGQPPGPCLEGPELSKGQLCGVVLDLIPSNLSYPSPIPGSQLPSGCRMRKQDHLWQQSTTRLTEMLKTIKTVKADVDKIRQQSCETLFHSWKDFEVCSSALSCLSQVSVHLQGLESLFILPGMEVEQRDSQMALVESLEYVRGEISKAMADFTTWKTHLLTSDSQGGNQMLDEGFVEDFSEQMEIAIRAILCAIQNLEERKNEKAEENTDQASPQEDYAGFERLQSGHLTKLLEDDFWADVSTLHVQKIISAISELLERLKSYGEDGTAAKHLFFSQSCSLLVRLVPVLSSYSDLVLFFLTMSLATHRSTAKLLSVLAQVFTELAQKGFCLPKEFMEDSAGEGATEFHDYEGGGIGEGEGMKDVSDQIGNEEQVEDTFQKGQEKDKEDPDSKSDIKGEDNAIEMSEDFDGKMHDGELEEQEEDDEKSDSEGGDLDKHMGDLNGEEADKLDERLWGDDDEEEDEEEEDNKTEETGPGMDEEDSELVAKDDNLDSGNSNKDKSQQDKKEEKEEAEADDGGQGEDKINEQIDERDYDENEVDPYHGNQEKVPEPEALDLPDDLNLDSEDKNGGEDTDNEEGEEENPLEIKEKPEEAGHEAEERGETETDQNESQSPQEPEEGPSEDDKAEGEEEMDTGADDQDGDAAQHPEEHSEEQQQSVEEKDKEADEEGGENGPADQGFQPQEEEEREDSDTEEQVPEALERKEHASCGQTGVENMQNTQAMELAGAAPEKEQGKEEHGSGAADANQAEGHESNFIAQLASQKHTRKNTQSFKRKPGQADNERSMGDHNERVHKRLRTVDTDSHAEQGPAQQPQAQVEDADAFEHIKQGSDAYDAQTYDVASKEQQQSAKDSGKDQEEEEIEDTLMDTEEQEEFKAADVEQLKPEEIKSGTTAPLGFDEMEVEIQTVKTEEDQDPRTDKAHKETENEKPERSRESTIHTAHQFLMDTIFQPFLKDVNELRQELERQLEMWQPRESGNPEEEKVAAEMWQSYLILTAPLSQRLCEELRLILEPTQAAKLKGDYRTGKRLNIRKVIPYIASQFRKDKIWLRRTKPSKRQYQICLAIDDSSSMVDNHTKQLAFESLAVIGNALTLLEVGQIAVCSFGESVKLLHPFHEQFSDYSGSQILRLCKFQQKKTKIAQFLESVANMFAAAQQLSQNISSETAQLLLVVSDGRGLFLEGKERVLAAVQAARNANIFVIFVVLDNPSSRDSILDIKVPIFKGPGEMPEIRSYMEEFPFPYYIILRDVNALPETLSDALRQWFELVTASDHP
UniProt O14880: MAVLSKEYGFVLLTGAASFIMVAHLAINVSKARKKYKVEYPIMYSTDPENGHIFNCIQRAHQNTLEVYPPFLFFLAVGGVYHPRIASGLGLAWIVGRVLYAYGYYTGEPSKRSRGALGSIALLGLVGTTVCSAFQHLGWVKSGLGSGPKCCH
UniProt Q9NR56: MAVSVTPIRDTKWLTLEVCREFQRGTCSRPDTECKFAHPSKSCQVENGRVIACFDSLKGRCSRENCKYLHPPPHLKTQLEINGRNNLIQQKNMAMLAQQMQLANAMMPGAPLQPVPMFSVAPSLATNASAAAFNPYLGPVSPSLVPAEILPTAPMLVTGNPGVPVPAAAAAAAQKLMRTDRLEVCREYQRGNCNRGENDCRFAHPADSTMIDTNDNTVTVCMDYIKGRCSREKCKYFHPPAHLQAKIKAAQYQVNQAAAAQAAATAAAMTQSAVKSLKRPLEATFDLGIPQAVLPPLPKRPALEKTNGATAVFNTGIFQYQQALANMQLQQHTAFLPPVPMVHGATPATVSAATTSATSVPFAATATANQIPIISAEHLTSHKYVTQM

What was measured:
Experiment in all cases: log2 fold change, soluble protein after heating vs DMSO (PISA); higher = thermal stabilisation; K562 cells, 10 uM, 30 min; active = over 0.2 and 3.5 SD of the protein, either way, in both replicates (recomputed)
[1] = compound: CC[C@@H]1C(=O)N(C)c2cnc(Nc3ccc(C(=O)NC4CCN(C)CC4)cc3OC)nc2N1C1CCCC1
Procedure, shortened: (§1)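 K562 cells at 2×10^6 cells/mL were exposed to 10 μM compound for 30 min, then aliquots were heated for 3 min across 48°C-58°C, pooled, and extracted in PBS containing 0.5% NP-40 at 4°C. The supernatant after 21,000xg for 90 min was taken as soluble protein and measured by TMTpro 16plex LC-MS/MS with channel sums equalised. Thermal stability is reported relative to control samples, with values from duplicates. Fold changes are given on a log2 scale.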

[2] = compound: CC[C@H](C)N1C=C(C2=C(C=C(C=C21)C3=CN=C(C=C3)N4CCNCC4)C(=O)NCC5=C(C=C(NC5=O)C)C)C
Procedure, shortened: as §1

[3] = compound: CC[C@H](C)[C@@H](C(=O)N[C@@H]([C@@H](C)O)C(=O)N[C@@H](CC(C)C)C(=O)[C@]1(CO1)C)NC(=O)[C@H]([C@@H](C)CC)N(C)C(=O)C [epoxomicin]
Procedure, shortened: as §1

[4] = compound: CCn1c(C(=O)N(C2CC2)C2CC2)cc2c3c(ncn3C)c(Nc3cc(C)n(C)n3)nc21
Procedure, shortened: as §1

[5] = compound: CCn1cc(-c2ccnc3[nH]c(-c4cccc(CN(C)C)c4)cc23)c(-c2ccc(NC(=O)N(C)C)cc2)n1
Procedure, shortened: as §1

[6] = compound: CN(C)CC(=O)Nc1ccc2[nH]c(=O)c3ccccc3c2c1
Procedure, shortened: as §1

[7] = compound: CN(CCOC1=CC=C(C=C1)C[C@H]2C(=O)NC(=O)S2)C3=CC=CC=N3 (racemic) [rosiglitazone]
Procedure, shortened: as §1

[8] = compound: CN1C2=C(C3=C1C(=O)N(N=C3)CC4=CC(=CC=C4)N)SC(=C2)S(=O)C
Procedure, shortened: as §1

[9] = compound: CN1CCC(CNc2ccc3ncc(-c4cccc(OC(F)(F)F)c4)n3n2)CC1
Procedure, shortened: as §1

[10] = compound: CN1CCN(CCOc2cc(OC3CCOCC3)c3c(Nc4c(Cl)ccc5c4OCO5)ncnc3c2)CC1 [saracatinib]
Procedure, shortened: as §1

[11] = compound: CN1CCN(c2nc(C3=C(c4c[nH]c5ccccc45)C(=O)NC3=O)c3ccccc3n2)CC1 [sotrastaurin]
Procedure, shortened: as §1

[12] = compound: CN1CCc2c(c3ccccc3n2Cc2ccc(C(=O)NO)cc2)C1 [Tubastatin A]
Procedure, shortened: as §1

[13] = compound: CNC(=O)C1=CC=CC=C1NC2=NC(=NC=C2Cl)NC3=C(C=C(C=C3)N4CCOCC4)OC
Procedure, shortened: as §1

[14] = compound: CNC(=O)c1ccc(Nc2ncc(C(F)(F)F)c(NCc3nccnc3N(C)S(C)(=O)=O)n2)cc1 [defactinib]
Procedure, shortened: as §1

[15] = compound: CNCc1ccc(-c2[nH]c3cc(F)cc4c3c2CCNC4=O)cc1 [rucaparib]
Procedure, shortened: as §1

[16] = compound: CNc1nc(-c2ccc3c(N)n[nH]c3c2)cc(N2C[C@@H](C(=O)NC3CCCCC3)CC[C@H]2C)n1
Procedure, shortened: as §1

[17] = compound: COC(=O)N[C@@H](C)CNc1nccc(-c2cn(C(C)C)nc2-c2cc(Cl)cc(NS(C)(=O)=O)c2F)n1 [encorafenib]
Procedure, shortened: as §1

[18] = compound: COC(=O)[C@H](CCSC)NC(=O)C1=C(C=C(C=C1)NC[C@H](CS)N)C2=CC=CC=C2
Procedure, shortened: as §1

[19] = compound: CC[C@@H]1C(=O)N(C)c2cnc(Nc3ccc(C(=O)N[C@H]4CC[C@H](N5CCN(CC6CC6)CC5)CC4)cc3OC)nc2N1C(C)C [volasertib]
Procedure, shortened: as §1

[20] = compound: CN1CC[C@H](c2c(O)cc(O)c3c(=O)cc(-c4ccccc4Cl)oc23)[C@H](O)C1 [alvocidib]
Procedure, shortened: as §1

Measured: log2 fold change

MATR3 (UniProt P43243)
inactive: [1] -0.032 | [2] 0.09 | [3] 0.093 | [4] -0.264 | [5] 0.11 | [6] -0.022 | [7] -0.151 | [8] 0.314 | [9] 0.099 | [10] -0.008 | [11] -0.012 | [12] -0.025 | [13] 0.017 | [14] 0.148 | [15] 0.085 | [16] -0.097 | [17] -0.127 | [18] -0.145

MED12 isoform 2 (UniProt Q93074)
inactive: [1] -0.055 | [19] -0.211 | [2] 0.091 | [3] -0.17 | [5] 0.086 | [8] 0.154 | [9] -0.071 | [10] 0.072 | [11] -0.09 | [12] 0.32 | [13] 0.303 | [15] 0.137 | [16] 0.102 | [17] 0.145

METTL26 (UniProt Q96S19)
inactive: [1] -0.006 | [19] -0.108 | [2] 0.024 | [4] -0.05 | [7] 0.066 | [13] 0.151 | [15] 0.017 | [17] 0.025

MCCC2 (UniProt Q9HCC0)
active: [13] -0.274
inactive: [1] 0.003 | [19] 0.038 | [2] -0.032 | [3] -0.018 | [5] -0.013 | [6] 0.003 | [8] -0.031 | [9] 0.027 | [10] 0.033 | [11] 0.018 | [12] 0.004 | [14] 0.008 | [15] 0.012 | [16] -0.05 | [17] -0.033 | [18] -0.003

MFSD11 (UniProt O43934)
inactive: [1] -0.244 | [19] 0.021 | [2] -0.108 | [3] 0.03 | [5] 0.021 | [6] 0.017 | [8] -0.026 | [10] 0.092 | [11] 0.085 | [12] 0.005 | [14] -0.033 | [15] -0.002 | [16] -0.127 | [17] -0.047 | [18] -0.015
active: [9] -0.345

Quoted at random: 2 records from the list.
MFSD11 (UniProt O43934)
inactive: [1] -0.244 | [19] 0.021 | [2] -0.108 | [3] 0.03 | [5] 0.021 | [6] 0.017 | [8] -0.026 | [10] 0.092 | [11] 0.085 | [12] 0.005 | [14] -0.033 | [15] -0.002 | [16] -0.127 | [17] -0.047 | [18] -0.015
active: [9] -0.345

MATR3 (UniProt P43243)
inactive: [1] -0.032 | [2] 0.09 | [3] 0.093 | [4] -0.264 | [5] 0.11 | [6] -0.022 | [7] -0.151 | [8] 0.314 | [9] 0.099 | [10] -0.008 | [11] -0.012 | [12] -0.025 | [13] 0.017 | [14] 0.148 | [15] 0.085 | [16] -0.097 | [17] -0.127 | [18] -0.145

Carrying on:

MEAK7 (UniProt Q6P9B6)
active: [19] -0.473
inactive: [1] -0.084 | [2] 0.039 | [3] 0.067 | [5] -0.03 | [6] -0.046 | [8] -0.033 | [9] -0.097 | [10] 0.043 | [11] -0.004 | [12] 0.028 | [13] -0.088 | [14] -0.041 | [15] 0.008 | [16] 0.026 | [17] 0.02 | [18] 0.088

MIA2 (UniProt Q96PC5)
inactive: [1] -0.039 | [2] 0.005 | [3] 0.037 | [5] 0.054 | [6] 0.005 | [8] 0.031 | [9] 0.053 | [10] 0.003 | [11] -0.106 | [12] -0.013 | [13] 0.021 | [14] -0.085 | [15] 0.074 | [16] -0.001 | [17] 0.07 | [18] 0.037
active: [19] -0.29

MED25 isoform 3 (UniProt Q71SY5)
inactive: [1] 0.057 | [19] -0.051 | [2] 0.027 | [5] -0.203 | [6] 0.096 | [8] -0.155 | [9] -0.043 | [10] -0.079 | [11] 0.031 | [12] -0.042 | [13] -0.014 | [14] -0.045 | [15] 0.104 | [16] 0.036 | [17] 0.083 | [18] -0.111

MED22 (UniProt Q15528)
inactive: [1] 0.133 | [2] 0.097 | [3] 0.02 | [6] -0.019 | [8] -0.043 | [10] -0.089 | [11] -0.007 | [12] 0.332 | [13] -0.051 | [14] -0.043 | [15] 0.021 | [16] 0.044 | [17] 0.12 | [18] 0.097

MDC1 (UniProt Q14676)
active: [8] 0.527
inactive: [1] 0 | [19] -0.074 | [2] -0.028 | [3] 0.039 | [5] 0.384 | [6] 0.015 | [9] 0.069 | [10] -0.194 | [11] -0.003 | [12] 0.011 | [13] -0.162 | [14] -0.012 | [15] 0.082 | [16] 0.119 | [17] 0.075 | [18] -0.067

MED17 (UniProt Q9NVC6)
inactive: [1] -0.011 | [19] -0.021 | [2] -0.008 | [3] -0.015 | [5] 0.08 | [6] 0.037 | [8] 0.036 | [9] -0.134 | [10] -0.063 | [11] -0.145 | [12] 0.009 | [13] -0.049 | [14] -0.021 | [15] 0.109 | [16] 0.031 | [17] -0.081 | [18] 0.055

MDN1 (UniProt Q9NU22)
inactive: [1] -0.109 | [2] 0.093 | [3] 0.006 | [5] -0.076 | [6] 0.031 | [8] -0.027 | [10] -0.029 | [11] -0.035 | [12] 0.033 | [13] -0.092 | [14] -0.166 | [15] -0.067 | [16] 0.018 | [17] 0.018 | [18] -0.049
active: [19] -0.334 | [9] -0.287

MGST3 (UniProt O14880)
inactive: [1] -0.005 | [19] 0.048 | [2] -0.107 | [3] -0.016 | [5] -0.047 | [6] -0.017 | [8] -0.027 | [9] 0.097 | [10] 0.037 | [11] 0.064 | [12] -0.01 | [13] -0.029 | [14] 0.012 | [15] -0.027 | [16] -0.028 | [17] -0.033 | [18] 0.053

MEGF10 (UniProt Q96KG7)
inactive: [19] -0.192 | [12] -0.1

MED27 (UniProt Q6P2C8)
inactive: [2] -0.044 | [3] -0.008 | [4] 0.028 | [5] 0.077 | [7] 0.024 | [8] 0.086 | [9] 0.319 | [10] -0.095 | [11] -0.152 | [20] -0.164 | [13] -0.087 | [16] 0.022

MBNL1 isoform 5 (UniProt Q9NR56)
inactive: [1] -0.063 | [2] -0.069 | [3] 0.125 | [7] -0.111 | [11] -0.014 | [12] -0.032 | [15] 0.199 | [17] -0.25

MEF2A isoform 2 (UniProt Q02078)
inactive: [19] 0 | [2] 0.103 | [5] 0.26 | [6] -0.101 | [9] 0.098 | [20] -0.078 | [14] -0.133 | [18] 0.092
